Weaker means in comparison with the reference protein, sequence or condition of that experiment. Where a protein sequence is shown, tags need not be part of it.
Experiments:
[1] = target: T1, Rbp95 full length (Saccharomyces cerevisiae) (UniProt P25617); assay: EMSA; conditions: 5 nM RNA, at least ~4-fold excess needed for shift; EMSA: 25 mM Tris-HCl pH 7.5, 75 mM NaCl, 2.5 mM MgCl2, 3.5% glycerol, 0.025% Tween 20, 0.5 mM DTT, 5 nM Cy5-RNA, 30 min at RT; 4-20% TBE gel; recombinant protein; residues 1-290; protein details: N-terminal His6; label: 5'-Cy5
T1 sequence (looked up): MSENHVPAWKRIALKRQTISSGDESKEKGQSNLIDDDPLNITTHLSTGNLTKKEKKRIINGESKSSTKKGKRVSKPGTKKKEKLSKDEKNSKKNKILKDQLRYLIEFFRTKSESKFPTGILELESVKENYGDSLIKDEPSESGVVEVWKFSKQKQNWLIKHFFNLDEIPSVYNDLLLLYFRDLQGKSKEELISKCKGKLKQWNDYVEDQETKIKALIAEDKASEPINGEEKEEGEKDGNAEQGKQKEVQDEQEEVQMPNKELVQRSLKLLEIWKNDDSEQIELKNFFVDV

[2] = target: T2, Rbp95 84-223 (Saccharomyces cerevisiae) (UniProt P25617); assay: EMSA; conditions: 100- or 500-fold excess, reduced versus 84-end; EMSA: 25 mM Tris-HCl pH 7.5, 75 mM NaCl, 2.5 mM MgCl2, 3.5% glycerol, 0.025% Tween 20, 0.5 mM DTT, 5 nM Cy5-RNA, 30 min at RT; 4-20% TBE gel; recombinant protein; residues 84-223; protein details: N-terminal His6; label: 5'-Cy5
T2 sequence (looked up): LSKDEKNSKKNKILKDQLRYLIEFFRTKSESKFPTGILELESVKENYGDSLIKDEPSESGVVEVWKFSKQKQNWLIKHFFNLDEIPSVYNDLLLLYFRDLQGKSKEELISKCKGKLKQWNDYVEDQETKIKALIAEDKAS

[3] = target: T3, Rbp95 84-end (Saccharomyces cerevisiae) (UniProt P25617); assay: EMSA; conditions: 100- or 500-fold excess, much weaker than 1-85; EMSA: 25 mM Tris-HCl pH 7.5, 75 mM NaCl, 2.5 mM MgCl2, 3.5% glycerol, 0.025% Tween 20, 0.5 mM DTT, 5 nM Cy5-RNA, 30 min at RT; 4-20% TBE gel; recombinant protein; residues 84-290; protein details: N-terminal His6; label: 5'-Cy5
T3 sequence (looked up): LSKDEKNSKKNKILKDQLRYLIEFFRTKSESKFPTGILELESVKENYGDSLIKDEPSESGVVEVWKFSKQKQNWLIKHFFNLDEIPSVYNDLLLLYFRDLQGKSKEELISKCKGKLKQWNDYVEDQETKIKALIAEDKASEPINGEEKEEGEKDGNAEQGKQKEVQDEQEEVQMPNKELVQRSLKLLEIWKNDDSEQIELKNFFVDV

[4] = target: T1, Rbp95 full length (Saccharomyces cerevisiae); assay: competition with a labelled probe; conditions: 20-100-fold excess over Cy5-H95, very ineffective; EMSA: 25 mM Tris-HCl pH 7.5, 75 mM NaCl, 2.5 mM MgCl2, 3.5% glycerol, 0.025% Tween 20, 0.5 mM DTT, 5 nM Cy5-RNA, 30 min at RT; 4-20% TBE gel; recombinant protein; residues 1-290; protein details: N-terminal His6

“AAAAAAAAAAAAAAAAAAAAAAAAAAAAAAAAAAAAAAAAAA [poly(A)42]”: binds more weakly [1].

“AAAGGGAAUUGAACUUAGUACGAGAGGAACAGUUCAUUUCCC [helix H95 (25S rRNA)]”: binds more weakly [2]; binds more weakly [3].

“AAAAAAAAAAAAAAAAAAAAAAAAAAAAAAAAAAAAAAAAAA [poly(A) unlabeled competitor]”: binds more weakly [4].
